Source: patent US20170285043A1
These are yes or no findings as the source states them, for the method shown. For some assays here: In cells and extracts the contact can be indirect. Some results given as binding are weak or reduced against the parent protein; the word gives no strength. For some assays here: Where a sequence is shown, tags or fusion partners need not be part of it.

The chains behind the UniProt entries cited, without tags or fusion partners. Where a name states a change or a piece, a line headed by the entry shows the natural chain unless it says otherwise.
UniProt Q9NXC5: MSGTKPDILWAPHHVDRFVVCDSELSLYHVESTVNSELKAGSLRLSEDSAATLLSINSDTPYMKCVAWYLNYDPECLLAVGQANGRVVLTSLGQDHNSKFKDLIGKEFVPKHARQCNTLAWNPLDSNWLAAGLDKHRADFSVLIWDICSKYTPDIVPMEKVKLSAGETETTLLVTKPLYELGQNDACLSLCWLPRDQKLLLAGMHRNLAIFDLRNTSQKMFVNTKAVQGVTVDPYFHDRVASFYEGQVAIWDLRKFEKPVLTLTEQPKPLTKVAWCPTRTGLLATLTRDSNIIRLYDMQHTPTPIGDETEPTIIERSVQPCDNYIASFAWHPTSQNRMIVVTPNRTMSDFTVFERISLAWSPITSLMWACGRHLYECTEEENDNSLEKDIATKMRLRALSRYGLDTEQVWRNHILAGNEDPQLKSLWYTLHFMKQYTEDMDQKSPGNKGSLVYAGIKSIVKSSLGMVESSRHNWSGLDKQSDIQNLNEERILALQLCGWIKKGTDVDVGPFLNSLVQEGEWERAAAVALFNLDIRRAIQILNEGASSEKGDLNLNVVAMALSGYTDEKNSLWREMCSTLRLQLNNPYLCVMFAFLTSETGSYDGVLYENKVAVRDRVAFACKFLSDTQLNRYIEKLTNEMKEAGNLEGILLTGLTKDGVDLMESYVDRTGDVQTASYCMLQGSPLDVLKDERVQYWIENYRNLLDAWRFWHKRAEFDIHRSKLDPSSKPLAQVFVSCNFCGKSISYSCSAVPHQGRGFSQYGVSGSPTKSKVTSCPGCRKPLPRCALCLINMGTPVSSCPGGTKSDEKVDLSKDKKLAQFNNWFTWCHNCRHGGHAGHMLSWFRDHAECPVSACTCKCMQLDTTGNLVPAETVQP

B1: FLAG-Sestrin1 (protein, not shown: small tags and cut ends)
chain: MAEGENEVRWDGLCSRDSTTRETALENIRQTILRKTEYLRSVKETPHRPSDGLSNTESSDGLNKLLAHLLMLSKRCPFKDVREKSEFILKSIQELGIRIPRPLGQGPSRFIPEKEILQVGSEDAQMHALFADSFAALGRLDNITLVMVFHPQYLESFLKTQHYLLQMDGPLPLHYRHYIGIMAAARHQCSYLVNLHVNDFLHVGGDPKWLNGLENAPQKLQNLGELNKVLAHRPWLITKEHIEGLLKAEEHSWSLAELVHAVVLLTHYHSLASFTFGCGISPEIHCDGGHTFRPPSVSNYCICDITNGNHSVDEMPVNSAENVSVSDSFFEVEALMEKMRQLQECRDEEEASQEEMASRFEIEKRESMFVFSSDDEEVTPARAVSRHFEDTSYGYKDFSRHGMHVPTFRVQDYCWEDHGYSLVNRLYPDVGQLIDEKFHIAYNLTYNTMAMHKDVDTSMLRRAIWNYIHCMFGIRYDDYDYGEINQLLDRSFKVYIKTVVCTPEKVTKRMYDSFWRQFKHSEKVHVNLLLIEARMQAELLYALRAITRYMT
B2: endogenous Sestrin1 (protein)
chain: B1 chain

Columns and labels:
[1] = target: GATOR2, recombinant, transiently co-expressed (HA-Mios, HA-WDR59, HA-WDR24, HA-Sec13, HA-Seh1L) (Homo sapiens (Human)) (UniProt Q9NXC5); experiment: anti-FLAG co-immunoprecipitation, transient co-expression in HEK-293T, immunoblot (FIG. 1B)
[2] = target: GATOR2 complex immunopurified through stably expressed FLAG-WDR24 (human) (UniProt Q9NXC5); experiment: anti-FLAG immunoprecipitation of FLAG-WDR24 from HEK-293T, immunoblot (figure not shown)

Binder | binding [1] | binding [2]
B1 | binds | –
B2 | – | binds
